Results are given in words; binding and its absence hold for the method and conditions named. In cells and extracts the contact can be indirect. A result given as binding can be weak or reduced; the word gives no strength.
Molecular target: low-density lipoprotein receptor-related protein-1 (LRP-1) β-chain (human (endogenous in FTC133)) (UniProt Q07954)
Test: co-IP; LRP-1-containing complexes precipitated with anti-LRP-1 α-chain antibody (8G1) and protein G-Sepharose from 500 µg FTC133 cell extract (10 mM Tris-HCl pH 7.4, 150 mM NaCl, 5 mM EDTA, 0.1% Triton X-100), 4°C; immunoblot; nonspecific IgGs as negative control

Amino acid sequences for entries named in this document (tags omitted). A change or cut given only in a name is not applied to a line headed by its entry. Residues count along the entry.
UniProt Q07954, residues 3944-4544: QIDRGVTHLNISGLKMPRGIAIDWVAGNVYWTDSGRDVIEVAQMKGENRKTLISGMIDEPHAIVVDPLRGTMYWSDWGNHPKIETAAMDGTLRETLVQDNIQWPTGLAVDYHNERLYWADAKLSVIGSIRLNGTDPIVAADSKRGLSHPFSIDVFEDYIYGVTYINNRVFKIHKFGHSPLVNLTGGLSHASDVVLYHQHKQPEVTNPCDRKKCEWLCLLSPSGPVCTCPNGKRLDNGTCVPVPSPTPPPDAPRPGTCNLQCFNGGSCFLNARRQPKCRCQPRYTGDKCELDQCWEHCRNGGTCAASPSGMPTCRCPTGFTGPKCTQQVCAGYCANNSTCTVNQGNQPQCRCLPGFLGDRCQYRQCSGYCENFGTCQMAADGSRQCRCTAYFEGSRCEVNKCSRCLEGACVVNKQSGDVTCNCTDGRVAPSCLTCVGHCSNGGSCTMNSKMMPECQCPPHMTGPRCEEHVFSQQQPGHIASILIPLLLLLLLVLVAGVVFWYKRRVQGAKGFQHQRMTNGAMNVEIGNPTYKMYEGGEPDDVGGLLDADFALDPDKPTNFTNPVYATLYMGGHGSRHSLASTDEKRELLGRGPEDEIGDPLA
UniProt P67775: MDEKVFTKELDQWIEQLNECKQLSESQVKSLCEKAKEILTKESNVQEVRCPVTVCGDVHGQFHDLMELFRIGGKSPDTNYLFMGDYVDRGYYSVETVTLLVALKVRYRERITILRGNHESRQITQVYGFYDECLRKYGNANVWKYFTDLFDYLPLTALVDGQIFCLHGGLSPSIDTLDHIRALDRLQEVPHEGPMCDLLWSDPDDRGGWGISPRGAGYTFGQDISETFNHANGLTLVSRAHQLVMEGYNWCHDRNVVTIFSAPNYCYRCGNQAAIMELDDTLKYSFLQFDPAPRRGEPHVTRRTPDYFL

Q: How did the binding turn out when “PP2A (serine/threonine protein phosphatase 2A) (from UniProt P67775) (enzyme)” was run?
A: The binding was “binds”.
